The values below come from US20080039387 (published 2008).

The nature of the data set: general procedure: Fmoc solid-phase peptide synthesis; Fmoc-Rink resin (4-(2',4'-dimethoxyphenyl-Fmoc-aminomethyl)-phenoxypolystyrene resin, Bachem D-2080; 0.47 mmol/g); HOBt; HOAt and DIPEA for Fmoc-Glu(2-phenylisopropyloxy)-OH. The conditions noted are these: whole synthesis, hydrochloride.

Take “2-[2-(hexadecanoylamino)ethoxy]ethoxyacetyl-Gly-Thr-Gln-Arg-Ser-Nle-c[Glu-Asn-D-Phe-Arg-Trp-Lys]-NH2”: where the note is “UV 214 nm, scale of the general procedure theoretically 0.10 mmol”, the “final HPLC purity” value was 99%. For the setting “scale 0.10 mmol”, this substance yielded an isolated mass of 28.1 mg and an isolated yield of 14%.
